Reference: patent EP0517371B1, “Hair growth composition containing citric acid esters” (UNILEVER PLC, priority 1991, dated 1992)
At least one structure is not confirmed: it was looked up by name or label, or the drawing left a doubt.

Test system: albino rats
Assay: Rat hair growth trial (plucked hair at end of G-2 anagen after topical application)
Type: in vivo
Conditions: versus control (vanishing cream base)
Method: The effect of esters of citric acid on hair growth was assessed using albino rats as an animal model. The rats were chosen from as few litters as possible and were each approximately 27-30 days of age at the start of the trial. Each rat was housed individually to prevent licking.
In each comparison, 6 rats were used in each group and hair growth was assessed as follows: A small patch of normal skin (3cm x 3cm) on the upper back of each rat was selected and hairs were plucked from this area at the start of the trial (G-1 telogen). Test materials or control in a vanishing cream base or an alcoholic lotion, as appropriate, were then applied twice daily until the end of the next anagen, i.e. after a further 20 days from the start of trial (G-2 anagen). Each application of lotion amounted to about 50 mg.
At the end of G2-anagen, hair was plucked again from the same dorsal area, and this was used for measurement of: • i) weight of hair per unit area of skin, • ii) length of hair, and • iii) diameter of hair measured microscopically.
This procedure was employed to compare the effect of topical application to the rat model of a known hair growth promoter, namely minoxidil and a test material as used in accordance with the invention, namely tri-n-butyl citrate.
In this experiment minoxidil was employed at a concentration of 2% by weight in 65% v/v aqueous ethanol and tri-n-butyl citrate was employed at a concentration of 5% by weight in a vanishing cream base.

Nc1cc(N2CCCCC2)nc(N)[n+]1[O-] [Minoxidil]
hair diameter, comparison in words: marked increase over both control and TBC | length of hair, comparison in words: similar | weight of plucked hair per unit area, comparison in words: marked increase over the control
